From patent US20140315786A1, “USE OF INTRACELLULAR ENZYMES FOR THE RELEASE OF COVALENTLY LINKED BIOACTIVES” (Catabasis Pharmaceuticals, Inc., priority 2011, published 2014)
Values joined by “and” are separate entries in the source; they are usually repeats but may differ in a detail not shown here. Identical values can stand only once. Counter-ions that a name gives are not always drawn. Some results were stated once for a whole list of compounds, not compound by compound.

How the values were obtained:
Format in all cases: cell-based
NFκB = experiment: NFκB-driven luciferase reporter assay in LPS-challenged RAW 264.7 macrophages
Experimental: RAW 264.7 cells transfected with an NFκB-driven luciferase reporter were plated in 96 well plates. Cells were treated with Vehicle (0.1% ethanol) or test compounds for 2 hours. As a positive control for inhibition of NFκB signaling, 6 wells were treated with […]. Cells were then challenged with 200 ng/mL LPS for 3 hours in the presence of test compounds. A subset of wells treated with vehicle remained unstimulated with LPS to determine the floor signal of the assay. NFκB driven luciferase activity was developed by addition of BriteLite luciferase kit (PERKIN ELMER®) and measured using a Victor V plate reader. NFκB activity (luciferase activity) for each treatment was normalized to Vehicle wells treated with LPS (% NFκB Response).

LTB4 = LTB4 assay (HTRF) in differentiated HL-60 cells stimulated with A23187; settings: bioactive used separately (not linked)
Experimental: The LTB4 assay was conducted using a commercial kit (CISBIO, Bedford, Mass.) in HL-60 cells. HL-60 cells were maintained in IMEM supplemented with 20% serum in 37° C. in 5% CO2. Media was changed 2 times a week and cells kept at a density of 2×10^5 to 1×10^6 cells/ml.
Before the experiment cell culture media was changed to 10% serum and HL-60 cells were differentiated for 3 days in 1.3% DMSO. On day 3 cells were concentrated 2 times in the DMSO containing media and 1 ml cell suspension/well plated in 24-well plates. BSA controls or CAT compounds prepared in 1% BSA from an ethanol or DMSO stock solution were added to the wells and the cell were incubated for 21 hours. Next day, cells were transferred to Eppendorf tubes centrifuged at 300×g and rinsed once in DPBS. Cells were re-suspended in 300 μl DPBS containing 2% FBS (assay buffer), and 80 μl/well was plated in 96-well plates (black sides, clear bottom). Some cells were pre-incubated with 10 μM NDGA, a LOX inhibitor. To initiated LTB4 secretion, cells were stimulated with the calcium ionophore A23187 (5 μM) for 15 min. […] LTB4 content in the supernatant was assessed by a homogeneous time resolved fluorescence (HTRF) LTB4 assay from CISBIO, in a 384-well plate format. […] Cell viability was determined in the 96-well plate by CellTiter-Glo (Promega, Madison, Wis.).

[1] = test system: ApoB secretion in HepG2 cells; experiment: ApoB secretion in HepG2 cells (oleate stimulated, ELISA); settings: bioactive used separately (not linked)
Experimental: HcpG2 cells (ATCC) were seeded at 10,000 cells per well in 96 well plates. After adhering overnight, growth media (10% FBS in DMEM) was removed and cells were serum starved for 24 hours in DMEM containing 0.1% fatty acid free bovine serum albumin (BSA, SIGMA®). Cells were then treated with the compounds. Niacin at 5 mM was used as a positive control. All treatments were performed in triplicate. Simultaneous with compound treatment, ApoB secretion was stimulated with the addition of […] complexed to fatty acid free BSA in a 5:1 molar ratio. Incubation with compounds and oleate was conducted for 24 hours. Media supernatants were removed and ApoB concentrations were measured using ELISA kits (MABTECH AB®). Percent inhibition of ApoB secretion was determined by normalizing data to vehicle treated wells. For a given compound, an IC50 (concentration at which 50% of ApoB secretion is inhibited) can also be determined by using a 4 parameter-fit inhibition curve model (GRAPH PAD PRISM®). In each experiment, cell viability was determined using the ATPlite 1-Step kit (PERKIN ELMER®), such that compound effects due to cytotoxicity could be monitored.

IL-1β = IL-1β transcript levels in LPS-stimulated RAW264.7 macrophages; settings: bioactive used separately (not linked)
Experimental: RAW264.7 macrophages were seeded at a density of 100,000 cells/well in a 96-well plate in DMEM supplemented with 10% FBS and penicillin:streptomycin. 16 hours later, medium was aspirated and replaced with 90 μL/well of serum-free DMEM. Linked bioactives were brought up in 100% ethanol to a concentration of 100 mM and then diluted 1:100 in 100% FBS for a stock solution consisting of 1 mM compound and 1% ethanol. These stock solutions were then diluted 1:10 in FBS supplemented with 1% ethanol to generate a 100 μM of the linked bioactives. 10 μL was then added to the RAW246.7 cells to generate final concentrations 10 μM of the linked bioactives or 10 μM each bioactive, along with vehicle only control. The linked bioactives were allowed to pre-incubate for 2 hours before stimulation of 100 ng/ml LPS (10 μL of 1 μg/ml LPS was added to each well). Following 3 hours of LPS stimulation, cells were washed once in 1×PBS, aspirated dry, and flash frozen in liquid nitrogen. RNA was then isolated and converted to cDNA using the Cells to cDNA kit (AMBION®) according to the manufacturer's protocol. IL-1β transcript levels were then measured using Taqman primer/probe assay sets (APPLIED BIOSYSTEMS®), normalized to GAPDH using the deltaCt method, and the data expressed relative to vehicle only control.

[2] = bioactive used separately (not linked)

Row | SMILES | concentration up to which no activity is observed in NFkB assay (NFκB; [2]) | concentration up to which no activity is observed in LTB4 assay (LTB4) | concentration up to which no activity is observed in NFkB assay (NFκB; bioactives used together but without linkage (DHA: stoichiometry of 2)) | concentration up to which no activity is observed in ApoB assay [1] | concentration up to which no activity is observed in IL-1β assay (IL-1β)
1 | Nc1ccc(O)c(C(=O)O)c1 [5-aminosalicylatc, 5-aminosalicylic acid] | > 250 µM |  |  |  | 
2 | CC/C=C\C/C=C\C/C=C\C/C=C\C/C=C\C/C=C\CCC(=O)O [DHA, docosahexaenoic acid] | > 250 µM and > 200 µM | > 100 µM | > 200 µM | > 100 µM | > 200 µM
3 | CC/C=C\C/C=C\C/C=C\C/C=C\C/C=C\CCCC(=O)O [EPA, eicosapentaenoic acid] | > 200 µM |  |  | > 100 µM | > 200 µM
4 | CC(C)Cc1ccc(C(C)C(=O)O)cc1 (centres unmarked) [ibuprofen] |  | > 100 µM |  |  | 
5 | COC(=O)/C=C/C(=O)O [mono-methyl fumarate, monomethyl fumarate] | > 200 µM |  |  |  | 
